Measurements taken from PubChem BioAssay AID504834 (National Center for Advancing Translational Sciences (NCATS), 2011).
In all, about 320,000 compounds went through this assay and about 22,000 (6.9%) were called active. Inconclusive means that the source gave no clear call. Such entries were picked first, then a sample of the others. The call rests on the fitted dose curve; in most records, active means well fitted inhibition curve with a large enough effect; inconclusive means small, poorly fitted or top-dose-only effect, or another doubt; inactive means no such curve, though single readings can be large or run the other way. Potencies of inconclusive entries are doubtful fits and often do not repeat.

Assay: Primary qHTS for delayed death inhibitors of the malarial parasite plastid, 96 hour incubation
Details: P. falciparum luciferase reporter growth; series mostly up to 28.7 µM; activity change, negative = inhibition: at the top concentration
Excerpt: The goal of this screen is to discover new antimalarial compounds that act by inhibiting the development of the apicoplast in the malarial parasite Plasmodium falciparum. The biochemical processes that make this organelle essential for erythrocytic stage parasites are not well understood. However, antibiotics such as azithromycin and tetracycline, which target the apicoplast translational machinery, have a potent antimalarial effect.
We have developed a cell-based assay that measures parasite growth based on the expression of an integrated copy of a firefly luciferase reporter. To detect small molecules that cause this "delayed death" phenotype, erythrocytes infected with the luciferase-expressing parasites were incubated with compounds for either one or two generations, corresponding to 48 and 96 hours, respectively. Compounds that inhibit parasite growth in the second generation, but not the first, should be enriched in antimalarials that target the apicoplast. Growth inhibition is detected by a decrease in luciferase activity.
Assay Provider: David Fidock and Eric Ekland, Columbia University
Keywords: NIH Roadmap, MLPCN, MLI, MLSMR, qHTS, NCGC, qHTS, malaria, luciferase, viability
Four microliters of infected erythrocytes (2% hematocrit, 0.05% parasitemia final concentration) in culture medium were dispensed and the plates incubated for 96 hours at 37 C in 5% CO2. Two microliters of luciferase detection reagent was added and luminescence was detected by a ViewLux (PerkinElmer) reader.
On the % scale 0 is the no-effect control and ±100 the full control effect; potency means the concentration at half of the fitted maximal effect.

Compound	activity change, negative = inhibition	Potency
COc1ccccc1NC(=O)Nc1nc(CC(=O)NCc2c(F)cccc2F)cs1	inactive: -18.9%	–
O=C(NCc1cccs1)c1cc2c(s1)-c1ccccc1OC2	inactive: -23.9%	–
O=C1/C(=C/c2cccs2)CCC/C1=C\c1cccs1	inactive: 307%	–
O=C(C1CCC(=O)N(C2CC2)C1)N1CCN(c2cccc(Cl)c2)CC1 (centres undefined)	–	inconclusive: 18.5 µM [inhibitor, single point]
Cc1ccc(S(=O)(=O)Nc2ccc(C(=O)N3CCOCC3)cc2)cc1	–	inconclusive: 2.08 µM [inhibitor, partial curve, poor fit]
CCC(C(=O)NCCN1CCOCC1)n1c2ccccc2c2nc(=O)cc(C)n21 (centres undefined)	–	inconclusive: 18.5 µM [inhibitor, single point]
COc1cc(C(=O)N2CCN(C(=O)C3COc4ccccc4O3)CC2)cc(OC)c1OC (centres undefined)	–	inconclusive: 13.1 µM [inhibitor, single point]
CCOc1ccc(N2CC(C(=O)Nc3nnc(Cc4ccc(OC)cc4)s3)CC2=O)cc1 (centres undefined)	inactive: -3.63%	–
Cc1ccc(F)cc1NC(=O)CSCc1c(C)noc1C	–	inconclusive: 0.465 µM [inhibitor, partial curve, poor fit]
COc1ccc(/C=N/n2c(=O)[nH]c3c([nH]c4ccc(Br)cc43)c2=O)cc1CN1CCOCC1	–	inconclusive: 9.28 µM [inhibitor, partial curve, poor fit]
O=C(Nc1cccc2cccnc12)c1cc(F)c(F)cc1Cl	inactive: 32.5%	–
Cc1ccc(C)c(S(=O)(=O)N2CCCOC2CNC(=O)C(=O)NCc2ccco2)c1 (centres undefined)	inactive: -20%	–
Cc1cc(=O)n2nc(N3CCC(C(=O)NCc4ccccc4Cl)CC3)sc2n1	–	active: 11.7 µM
CC(Cc1cccnc1)NC(=O)c1ccccc1OC1CCN(S(C)(=O)=O)CC1 (centres undefined)	–	inconclusive: 1.85 µM [inhibitor, full curve, poor fit]
COc1ccc(N(C(=O)c2ccc3c(c2)OCO3)C2C=CS(=O)(=O)C2)c(OC)c1 (centres undefined)	–	inconclusive: 8.28 µM [inhibitor, single point]
COc1cccc(-n2cc(CNCc3c(C(=O)N(C)C)nc4ccc(Cl)cn34)cn2)c1	–	inconclusive: 14.7 µM [inhibitor, partial curve, poor fit]
O=C(Cc1ccc([N+](=O)[O-])cc1)Nc1ccc(Cl)cc1	inactive: 3.55%	–
COc1cc(CN(C)c2ncnc3sccc23)ccc1OC(F)F	–	active: 13.1 µM
Cc1cccc2cc(CN(Cc3cccs3)S(=O)(=O)c3ccc4c(c3)OCCO4)c(=O)[nH]c12	–	inconclusive: 0.37 µM [inhibitor, partial curve, poor fit]

Nothing new here: entries from further up.
Compound	activity change, negative = inhibition	Potency
COc1cccc(-n2cc(CNCc3c(C(=O)N(C)C)nc4ccc(Cl)cn34)cn2)c1	–	inconclusive: 14.7 µM [inhibitor, partial curve, poor fit]
O=C(Cc1ccc([N+](=O)[O-])cc1)Nc1ccc(Cl)cc1	inactive: 3.55%	–
